Measured values: publication PMC9373806
These are yes or no findings as the source states them, for the method shown. Binding seen in cells or lysates may run through a third protein. Some binding calls cover weakened binding; strength is not graded here.

Sequences of proteins named here, by UniProt entry; tags and fusion partners are left off.
UniProt Q4V8I7: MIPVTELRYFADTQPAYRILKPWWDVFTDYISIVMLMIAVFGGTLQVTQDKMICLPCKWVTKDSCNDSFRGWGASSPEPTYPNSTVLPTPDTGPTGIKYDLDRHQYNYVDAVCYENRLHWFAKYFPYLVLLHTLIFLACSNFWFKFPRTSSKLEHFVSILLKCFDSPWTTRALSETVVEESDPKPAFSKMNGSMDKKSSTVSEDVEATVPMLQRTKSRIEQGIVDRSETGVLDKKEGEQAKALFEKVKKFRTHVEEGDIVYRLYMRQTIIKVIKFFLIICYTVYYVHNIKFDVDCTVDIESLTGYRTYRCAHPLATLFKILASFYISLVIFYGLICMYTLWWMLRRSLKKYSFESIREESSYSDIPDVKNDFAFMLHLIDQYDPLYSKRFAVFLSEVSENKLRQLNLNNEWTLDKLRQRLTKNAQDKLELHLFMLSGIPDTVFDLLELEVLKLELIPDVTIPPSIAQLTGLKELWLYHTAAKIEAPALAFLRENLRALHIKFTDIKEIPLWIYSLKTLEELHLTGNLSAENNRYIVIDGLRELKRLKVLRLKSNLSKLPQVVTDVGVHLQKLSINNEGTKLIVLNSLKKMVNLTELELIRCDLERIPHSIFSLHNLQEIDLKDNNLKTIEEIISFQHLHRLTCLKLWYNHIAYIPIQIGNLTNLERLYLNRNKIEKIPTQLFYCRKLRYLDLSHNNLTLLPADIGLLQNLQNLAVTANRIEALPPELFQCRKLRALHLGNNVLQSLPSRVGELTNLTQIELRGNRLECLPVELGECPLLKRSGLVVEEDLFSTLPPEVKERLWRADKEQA
UniProt Q62689: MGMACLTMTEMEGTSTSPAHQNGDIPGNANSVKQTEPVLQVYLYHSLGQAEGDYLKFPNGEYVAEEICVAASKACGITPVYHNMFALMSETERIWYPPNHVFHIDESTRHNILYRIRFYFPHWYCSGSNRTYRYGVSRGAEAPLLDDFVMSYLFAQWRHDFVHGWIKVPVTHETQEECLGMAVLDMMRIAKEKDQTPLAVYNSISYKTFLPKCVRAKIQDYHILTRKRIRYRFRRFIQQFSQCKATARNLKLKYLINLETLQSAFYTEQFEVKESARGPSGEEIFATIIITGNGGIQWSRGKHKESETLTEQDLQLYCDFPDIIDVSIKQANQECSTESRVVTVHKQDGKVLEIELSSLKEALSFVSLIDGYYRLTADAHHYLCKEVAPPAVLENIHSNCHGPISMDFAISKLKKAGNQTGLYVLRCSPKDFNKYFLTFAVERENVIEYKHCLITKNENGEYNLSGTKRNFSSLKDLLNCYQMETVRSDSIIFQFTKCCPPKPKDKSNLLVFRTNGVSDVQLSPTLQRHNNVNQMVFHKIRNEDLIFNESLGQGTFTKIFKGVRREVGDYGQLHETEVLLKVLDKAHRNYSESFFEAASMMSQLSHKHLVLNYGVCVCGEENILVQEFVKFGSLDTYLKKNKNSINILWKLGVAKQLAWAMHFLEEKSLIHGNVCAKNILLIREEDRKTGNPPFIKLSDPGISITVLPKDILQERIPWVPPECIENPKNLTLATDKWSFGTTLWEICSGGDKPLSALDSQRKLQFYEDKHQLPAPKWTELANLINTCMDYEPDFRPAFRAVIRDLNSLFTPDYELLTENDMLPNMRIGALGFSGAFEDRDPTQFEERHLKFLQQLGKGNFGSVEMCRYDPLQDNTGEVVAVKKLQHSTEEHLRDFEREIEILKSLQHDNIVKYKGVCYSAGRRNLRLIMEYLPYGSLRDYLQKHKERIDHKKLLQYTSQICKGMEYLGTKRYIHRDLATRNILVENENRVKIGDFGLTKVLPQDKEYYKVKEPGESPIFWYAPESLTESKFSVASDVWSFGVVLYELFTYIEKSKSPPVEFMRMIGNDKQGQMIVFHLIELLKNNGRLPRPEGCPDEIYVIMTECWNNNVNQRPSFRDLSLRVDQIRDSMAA
UniProt P62994: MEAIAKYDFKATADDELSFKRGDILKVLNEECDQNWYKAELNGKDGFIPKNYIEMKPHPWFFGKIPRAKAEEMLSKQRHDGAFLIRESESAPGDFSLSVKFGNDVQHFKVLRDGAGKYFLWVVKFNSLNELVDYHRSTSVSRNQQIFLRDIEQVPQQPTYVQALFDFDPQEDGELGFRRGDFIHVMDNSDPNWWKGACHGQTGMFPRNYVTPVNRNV

Biological target: Leucine-rich repeat-containing protein 8A, rat wild-type full length (LV-Lrrc8aWT) (rat) (UniProt Q4V8I7)
Assay: co-IP; fibroblasts transfected with lentivirus vectors LV-Lrrc8aWT, LV-Lrrc8aΔLRRD or LV-Control; which protein was precipitated is not told in the text shown

| Substance | binding |
| --- | --- |
| Janus kinase-2 (from UniProt Q62689 1-1132) | binds |
| Growth factor receptor-bound protein 2 (from UniProt P62994 1-217) | binds |
